Results published in patent US20080299109A1, “MECHANISM OF ASTRICYTE-NEURON SIGNALING” (Korea Institute of Science and Technology, priority 2007, published 2008).
At least one structure is not confirmed: it was looked up by name or label, or the drawing left a doubt. Ends that are not written are not given here.

How the values were obtained:
[1] = tested on: cultured wild-type mouse astrocytes; test: Fura-2 intracellular Ca2+ imaging in cultured wild-type astrocytes; assay type: cell-based; details: 30 μM TFLLR, 10 μM bradykinin, 50 μM 2-methyl-thio-ATP, 10 μM ATP, 30 nM thrombin
Method: Cultured astrocytes were prepared from P0-P3 postnatal mice obtained from KIST SPF. The cerebral cortex was dissected free of adherent meninges, minced, and dissociated into single cell suspension by trituration through a Pasteur pipette. All procedures involving the use of animals were reviewed and approved by the Emory University IACUC. Dissociated cells were plated onto either 12 mm glass coverslips or 6 well plates coated with 0.1 mg/ml poly-D-lysine. Cells were grown in a DMEM media (Gibco, cat# 11960-044) supplemented with 25 mM glucose, 10% heat-inactivated horse serum, and 10% heat-inactivated fetal bovine serum, 2 mM glutamine, and 1000 units/ml penicillin-streptomycin. Cultures were maintained at 37° C. in a humidified 5% CO2-containing atmosphere. […] In some experiments, the culture media was replaced 24 hours after plating with DMEM with all added components except glutamine, and cultures were maintained for 4 days before experimentation in glutamine-free media.
Cultured astrocytes were incubated with 5 µM Fura2-AM in […] pluronic acid (Molecular Probes) for 30 min at room temperature, and subsequently transferred to a microscope stage for imaging. The external solution contained 150 mM NaCl, 10 mM HEPES, 3 mM KCl, 2 mM CaCl2, 2 mM MgCl2, and 5.5 mM glucose, and the pH was adjusted to pH 7.3 and osmolarity to 325 mOsm. […]

wild-type astrocytes = test: Sniffer-patch detection of glutamate release, GluR1(L497Y)-transfected HEK cells on wild-type astrocytes; assay type: cell-based, mouse
Method: HEK 293 cells (ATCC1573) were plated onto 12 mm glass coverslips coated with 5-10 ug/ml poly-D-lysine and grown in a DMEM media (Gibco, cat# 11960-044) supplemented with 25 mM glucose, 10% heat-inactivated horse serum, and 10% heat-inactivated fetal bovine serum, 2 mM glutamine, and 1000 units/ml penicillin-streptomycin (Banke & Traynelis, 2000; Traynelis & Wahl, 1996). The obtained cultures were maintained at 37° C. in a humidified 5% CO2-containing atmosphere.
HEK 293 cells were transfected with a 1:3.5 ratio of GFP and GluR1(L497Y) using the calcium phosphate method using effectence for 6-8 hours, after which the media was replaced and supplemented with 1 mM kynurenic acid and 10 μM N-(4-hydroxyphenylpropanoyl) spermine or 10 μM CNQX. The transfected HEK cells were subsequently trypsinized and replated onto astrocyte feeder layers derived from either wild-type or PAR1−/− mice 24 hours post-transfection, and recordings performed 24 hours after replating. […]
GluR1(L497Y)-transfected HEK cells were directly plated onto an astrocyte monolayer, and subsequently the whole cell HEK current response under voltage clamp during a brief 0.2 sec application of the PAR1 activator TFLLR (500 μM), ATP (300 μM), or bradykinin (180 μM), respectively, from a pressurized pipette was recorded (FIGS. 5a, and 5b). […]

Q: What does the source list for RPPGFSPFR [bradykinin]?
A: level of astrocytic intracellular Ca^2+ (Fura-2 fluorescence ratio) [1]: increase; inward current in adjacent GluR1(L497Y)-transfected HEK cell (wild-type astrocytes; brief pressure application 500 μM TFLLR, 300 μM ATP, 180 μM bradykinin): elicited an inward current; peak glutamate concentration (wild-type astrocytes; wild-type astrocytes, converted from current by Formula 1): ~3.9 µM
